## Results of single-concentration screens

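Assay of Toxoplasma gondii numbers, read through their beta-galactosidase reporter with a colour substrate. Compounds at 10 µM. The record gives no direction; the compounds picked for IC50 retests had high values, so higher reads as fewer parasites. Size under these conditions: about 67,000 compounds, about 260 of them at 50% or above in at least one test.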

Results are given as percent effect. The controls that fix the scale are not given in the record; negative values are as filed. Compounds were drawn at random from those tested, without regard to their results.

structure | effect
CC(NCCNS(=O)(=O)c1cccc(Cl)c1)C1CCOCC1 (stereo not given) | 0.9451%
CC(C)O[C@H]1CN(Cc2cnc3c(-c4ccccc4)cnn3c2)C[C@@H]1O | 10.14%
Cc1cc(C)n(CC2CCCN2CC(=O)N(C)CCC#N)n1 (stereo not given) | 11.54%
COc1ccccc1CN1CCCCC1c1n[nH]cc1-c1cc(C)no1.Cl (stereo not given) | -6.28%
[H][C@@]12CCC(=O)N(CCCOC)[C@]1([H])CCN(c1cc(C(N)=O)ccn1)C2 | 0.8635%
CC(NC(=O)NCCS(C)(=O)=O)c1ccc2c(c1)CCC(=O)N2 (stereo not given) | 15.6%
Cc1nc(C(F)(F)F)nc(N2CCC(O)(C(=O)O)CC2)c1C | -1.644%
CC(C)c1nc(CN2CCC(CO)CC2)cs1 | -9.265%
Cc1nn(C)cc1Cn1c(=O)c(C)nc2ccccc21 | -4.363%
CCN(CC)C(=O)c1ccn(COc2ccc(F)cc2F)n1 | 5.589%
CCN(CC)CCn1cc(NC2CCSCC2)cn1 | 4.368%
Cn1c(CN2CCCC(Cn3cc(CCO)nn3)C2)cc2ccccc21 (stereo not given) | -4.123%
CNC(=O)c1cc(-c2ccccc2)nc2ncnn12 | 6.466%
Cc1nn(C)c(N2CCCN(C)CC2)c1CNC(=O)CCC(C)C | 3.024%
CCc1nc(CN2CCN(CC(O)c3ccccc3)CC2)no1 (stereo not given) | -27.11%
CC(C)Nc1ncnc2c1CCN(C(=O)CCc1ccccc1)CC2 | -3.235%
Cc1nc(CNC(=O)c2cc(Cn3ccnc3C(C)C)[nH]n2)sc1C | -8.399%
COCCCN1CC2(CCCN(c3ncc4nc[nH]c4n3)C2)CCC1=O (stereo not given) | 0.4764%
Cn1nc(C#N)c2c1CN(C(=O)c1ccco1)CCC2 | -10.25%
CN(Cc1cccc(Cl)c1)C(=O)Cn1nc(-c2ccc(F)cc2)oc1=O | 9.515%
CCc1ccc(C(NC(=O)CN(C)S(C)(=O)=O)C(C)(C)C)o1 (stereo not given) | 2.09%
[H][C@@]12CNC(=O)N1CCN(Cc1nccs1)C2 | 2.34%
O=C(Nc1ccccc1)C1CN(Cc2ccsc2)CC12CCOCC2.O=C(O)C(F)(F)F (stereo not given) | -1.507%
Cc1ccc(OC2(C(=O)O)CCN(C(=O)c3ccsc3)CC2)cn1 | -3.373%
Cc1nccn1-c1ccc(NS(=O)(=O)c2cnn(C(C)C)c2)cn1 | -8.841%
CCO[C@H]1COC[C@@H]1NC(=O)CCc1nc(-c2ccccc2)no1 | -0.6383%
CCN(CC(=O)NC(C)C)C(=O)C(C)(C)c1ccc2c(c1)OCCO2 | -2.397%
COc1ccc2c(c1)CCN(CCC(=O)O)CC2 | -1.847%
CC(C(=O)NCc1ccco1)N1CCN(Cc2nccn2C)CC1 (stereo not given) | -52.82%
O=C(c1ccc(Cn2cnnn2)cc1)N1CC[C@H](CO)[C@H](O)C1 | 12.55%
O=C(O)C(F)(F)F.[H][C@@]12CCCO[C@]1([H])[C@@H](OCC(=O)N(C)C)CN2Cc1ccccc1 | -7.294%
O[C@@H]1C[C@@H](c2nc(-c3ccc(OC(F)(F)F)cc3)no2)N(CC2CC2)C1 | 14.7%
CCCS(=O)(=O)N1CCN(c2ccc3nnc(CC)n3n2)CC1 | 15.8%
COCCNC(=O)CSc1nnc(OC(C)C)s1 | -5.367%
O=C(O)C(F)(F)F.O=C(O)C(F)(F)F.[H][C@@]12CN(CC3CC3)C[C@]1([H])OCCN2c1ccc(C)nn1 | 3.389%
Cc1c(CCC(=O)Nc2ccc(Cl)cn2)cnn1C | 13.28%
O=C(O)C(F)(F)F.O=C(O)C(F)(F)F.[H][C@@]12CCCO[C@]1([H])[C@H](OCc1ccncc1)CN2Cc1ccoc1 | -31.21%
Cc1ccc(CNC(=O)NC2CCCN(c3ncccn3)C2)cn1 (stereo not given) | 0.8979%
CCCC(=O)NCCc1nc2cc(-c3ccc(OC)cc3)ncn2n1 | 24.03%
CCC(CO)N(Cc1ccncc1)Cc1c[nH]nc1-c1ccc(F)cc1 (stereo not given) | -7.893%
Cc1ccccc1C(C(=O)NCCSC(F)(F)F)N(C)C (stereo not given) | -13.14%
Cn1c2c(c(=O)c3ccccc31)CCC(C)(C)O2 | -1.52%
OCC(O)CSCc1ccc(F)cc1Cl (stereo not given) | -6.068%
O=C(CCOCc1ccccc1)N1CCCC1c1noc(C2CC2)n1 (stereo not given) | 0.05744%
COCCN1CCN(c2nc(O)cc(Cc3ccccc3F)n2)CC1 | -0.5168%
NCC1Cc2cc(Cl)cc(-c3cncc(C(=O)N4CCCCC4)n3)c2O1 (stereo not given) | 14.94%
Cc1ccc(O)c(C(=O)N2CCC(CNC(=O)OC(C)(C)C)C2)c1 (stereo not given) | 12.77%
COCCCn1ccc(NS(=O)(=O)c2cc(F)c(C)cc2F)n1 | -9.787%
O=C(NCCn1ccnc1-c1cc2n(n1)CCNC2)c1ccc(F)cc1 | -24.45%
Cc1noc(C)c1CN(C)C(=O)c1ccc(O)nc1 | 10.51%
O=C(c1ccsc1)N1CC(c2nc(-c3ccc[nH]c3=O)no2)C1 | -8.88%
C1CCN(Cc2nnn3c2CN(CC2CC2)CCC3)C1 | -4.507%
Cc1nc(CN2CCC(N(C)Cc3nnc(C4CC4)n3C)C2)cs1 (stereo not given) | -11.69%
CCCS(=O)(=O)N1CCC2(CC1)COCCN(C(C)=O)C2 | 5.34%
CCc1[nH]ncc1C(=O)N1CCCN(Cc2cnn(C)c2)CC1 | -18.72%
Cc1cc2nc(CN(C)c3ccccc3)cc(=O)n2o1 | -19.52%
CC(C)c1nc(C2CCCN(C(=O)c3ccc(N(C)C)nn3)C2)no1 (stereo not given) | -0.3598%
Cc1csc(CNC(=O)N2CCN(Cc3cc(C)on3)CC2)n1 | 8.201%
CC1COCCN1Cc1noc(C(C)(C)C)n1 (stereo not given) | 15.45%
O=C1N(CCc2ccccc2)CCCC12CCN(C(CO)CO)C2 (stereo not given) | -1.025%
O=C(NC[C@]1(O)CN(Cc2ccccc2F)C[C@H]1O)c1cscn1 | 5.503%
Cc1ccc(C(=O)N2CCC3(CC2)CC(NC(=O)C(C)C)CO3)cc1 (stereo not given) | -1.354%
CC(C)c1nnc2n1CCN(C(=O)c1ccc(OCC(N)=O)cc1)C2 | 3.367%
CCc1ccc(C(=O)N2CCCC2c2c(C)nn(C)c2OC)o1 (stereo not given) | 18.24%

The first 4 entries again:

- CC(NCCNS(=O)(=O)c1cccc(Cl)c1)C1CCOCC1 (stereo not given) : 0.9451%
- CC(C)O[C@H]1CN(Cc2cnc3c(-c4ccccc4)cnn3c2)C[C@@H]1O : 10.14%
- Cc1cc(C)n(CC2CCCN2CC(=O)N(C)CCC#N)n1 (stereo not given) : 11.54%
- COc1ccccc1CN1CCCCC1c1n[nH]cc1-c1cc(C)no1.Cl (stereo not given) : -6.28%

Measurements from “University of Dundee, Small-Polar-MMV Screening Library” (2021), ChEMBL document CHEMBL3988442.